Source: patent US20200197385A1, “THERAPEUTIC AGENT FOR CANCER CONTAINING AXL INHIBITOR AS ACTIVE INGREDIENT” (ONO PHARMACEUTICAL CO., LTD., priority 2017, published 2020)
For some of these results: At least one compound was matched to its structure with a doubt left. Some entries share one result that the patent states for a list of compounds.

Tests used:
[1] = tested on: human acute lymphatic leukemia cell line CCRF-HSB-2; assay: In vitro combined use test, Cell Titer-Glo; assay type: cell-based; conditions: 72 hours
Experimental: A human acute lymphatic leukemia cell line CCRF-HSB-2 was prepared in an IMDM medium containing 10% FBS (10% FBS-IMDM medium) at about 200000 cells/mL, and seeded in a 96 well plate at 50 μL/well. […] The plate was incubated at 37° C. in humidified air including 5% CO2 for 72 hours. After culturing, relative luminescence unit (RLU), proportional to cellular endogenous ATP amount, was measured by Cell Titer-Glo Luminescent Cell Viability Assay (registered trademark). Percentage (%) of RLU of each compound-treated group relative to RLU of the vehicle group was measured.

[2] = tested on: leukemia cells in bone marrow derived from patient with acute myeloid leukemia; assay: Proliferation test (CFDA-SE), bone marrow sample of acute myeloid leukemia patient, compound A combined with anticancer drugs; assay type: cell-based, human; conditions: 96 hours, Ci<1 synergistic action
Experimental: (§1) Initial evaluation: Bone marrow samples were obtained from an adult acute myeloid leukemia patient. […] Furthermore, to evaluate the initial survival rate of cells, Annexin V was added to the above-mentioned combination of MAb.
Proliferation test: Proliferation was measured using a CFDA-SE coloring agent. A coloring agent which had been prepared in advance was placed in 15-mL tube including bone marrow enough to obtain about 6000 cells/well of living leukemia cells. Thereafter, they were diluted with the medium such that the total volume became 1 mL. After the resultant product was mixed well by vortex, the mixture was incubated on a rotator at room temperature with light shielded for 10 minutes. Then, the tube was filled with cool RPMI1640 including 10% FBS (medium 2), and incubated on ice for 5 minutes to stop the reaction. Thereafter, the cells were washed with the medium 2 twice. For the final re-suspension before plating and incubation, the medium 1 replenished with a cytokine cocktail was used. […] The plate containing the sample was incubated at 37° C. in humidified air including 5% CO2 for 96 hours. In order to prepare a sample for analysis, erythrocytes were lysed after completion of incubation, and then, the sample was stained with the best combination of Mab and Annexin V to identify the leukemia cells in the sample. Finally, the plate was analyzed by ExviTech (registered trademark) platform.
Data analysis: Synergistic analysis was carried out by calculating Combination Index (Ci) as described in Cancer Research, Vol. 70, No. 2, pp. 440-446, 2010. […] Note here that the meaning of the Ci value is regarded as follows.
(§2) Ci<1: synergistic action, Ci=1: additive action, Ci>1: antagonistic action

[3] = tested on: leukemia cells in bone marrow derived from patient with acute myeloid leukemia; assay: Reduction test, bone marrow sample of acute myeloid leukemia patient, compound A combined with anticancer drugs; assay type: cell-based, human; conditions: 96 hours, Ci<1 synergistic action
Experimental: as §1
The plate containing the sample was incubated at 37° C. in humidified air including 5% CO2 for 96 hours. In order to prepare a sample for analysis, erythrocytes were lysed after completion of incubation, and then, the sample was stained with the best combination of Mab and Annexin V to identify the leukemia cells in the sample. Finally, the plate was analyzed by ExviTech (registered trademark) platform.
Note here that the meaning of the Ci value is regarded as follows.
as §2

With `C[C@@H]1C[C@H]2[C@@H]3CCC4=CC(=O)C=C[C@]4(C)[C@@]3(F)[C@@H](O)C[C@]2(C)[C@@]1(O)C(=O)CO` [Dexamethasone, dexamethasone] the “RLU in combined use with compound A compared with single use of each agent” value [1] was “lowered” and the “Ci median value in combined use with compound A” value (shortened to “Ci median value in combined use”) ([1]; listed as dexamethasone) was “less than 1”.

For `CCc1nc(C(N)=O)c(Nc2ccc(N3CCC(N4CCN(C)CC4)CC3)c(OC)c2)nc1NC1CCOCC1` [Gilteritinib, gilteritinib], the “Ci median value in combined use” value ([2]; listed as gilteritinib) was “less than 1”.

For `COc1cc(C(=O)O)ccc1NC(=O)[C@@H]1N[C@@H](CC(C)(C)C)[C@](C#N)(c2ccc(Cl)cc2F)[C@H]1c1cccc(Cl)c1F` [Idasanutlin, idasanutlin], the “Ci median value in combined use” value ([3]; listed as idasanutlin) was “less than 1”.

In the case of `CO[C@@H]1[C@H](N(C)C(=O)c2ccccc2)C[C@H]2O[C@]1(C)n1c3ccccc3c3c4c(c5c6ccccc6n2c5c31)C(=O)NC4` [Midostaurin, midostaurin], the “Ci median value in combined use” value ([2]; listed as midostaurin) is reported as “less than 1”.

In the case of `CCCCc1nc2cc(/C=C/C(=O)NO)ccc2n1CCN(CC)CC` [Plasinostat, plasinostat], the “Ci median value in combined use” value ([3]; listed as plasinostat) is reported as “less than 1”.

With `CC[C@@H]1C(=O)N(C)c2cnc(Nc3ccc(C(=O)N[C@H]4CC[C@H](N5CCN(CC6CC6)CC5)CC4)cc3OC)nc2N1C(C)C` [Volasertib, volasertib] the “Ci median value in combined use” value ([2]; listed as volasertib) was “less than 1”.
